Source: patent publication US5550124A, “Use of peripheral-type benzodiazpine sites for treatment of CNS trauma or disease” (priority 1991, dated 1996)

Test: Physical trauma (head injury) model, grip score 18 hours post-injury
Assay type: in vivo, mice (male CF-1)
Conditions: grip score 18 h post trauma, FIGS. 1-8
Text: Two tests which can be readily performed are observation of grip score and observation of grip time in injured test animals. Another test for agonist activity is for decrease in mortality caused by the CNS injury. Mice can be treated to simulate CNS injury by a variety of methods: they can be deprived of oxygen by administration of KCN (Nauquier, A., et al., Arch. Int. Pharmacodyn., 249:330 (1981)) or by temporary tying-off of the carotid artery (Braughler, J. M. and Lainer, M. J., "The effects of large doses of methylprednisolone on neurologic recovery and survival in the Mongolian gerbil following three hours of unilateral carotid occlusion," CNS Trauma, 3:153-162 (1986)). Alternatively, blows can be administered to the head or the spinal cord of the test animal.
The following protocol was used: […]
Immediately following injury, the mouse was placed under a heat lamp. […] The time of injury and the time of injection were recorded. […]
Each mouse was evaluated 18 hours post-injury for neurological deficit. […]
Each mouse was picked up by the tail and placed on the string. […] Grip score was recorded based on the mouse's performance while on the string. […]
C) Statistical Analysis Results of the above test were analyzed for statistical significance using the Mann-Whitney U test. […]

For `CN1C(=O)CN=C(c2ccccc2)c2cc(Cl)ccc21` [Diazepam, 7-Chloro-1,3-dihydro-1-methyl-5-phenyl-2H-1,4-benzodiazepin-2-one], the “effectiveness in treatment of CNS trauma/damage (in words)” value was “effective”.
